The text below walks through data of paper PMC2905701 (Bioinorganic Chemistry and Applications, 2010).

This data set is described as follows: general procedure: Fmoc solid-phase peptide synthesis; Rink Amide MBHA resin or 2-chlorotrityl-chloride resin bearing a Rink-Bernatowitz linker; DIC/HOBt; if necessary TBTU/HOBt/DIEA. The following applies: whole synthesis, amino acid content of the resin.

For [D-Phe^12, Aib^14]CRH, the isolated yield is 41%.
On to [D-Phe^12, Aib^15]CRH, for which the isolated yield is listed as 38%.
The substance [D-Phe^12,Cys(Et)^21, Cys(Pr)^38]CRH gave an isolated yield of 33%.
[D-Phe^12,Cys(Et)^21]CRH came in with an isolated yield of 39%.
The substance [D-Phe^12,Cys(Pr)^21, Cys(Et)^38]CRH gave an isolated yield of 35%.
As to [D-Phe^12,Cys(Pr)^21, Cys(Pr)^38]CRH, the isolated yield is reported as 36%.
The substance [D-Phe^12,Cys(Pr)^38]CRH had an isolated yield of 37%.
